Earlier results in patent publication US5646146A, “Heterocyclic compounds and their preparation and use” (Novo Nordisk A/S, priority 1993, dated 1997).
At least one compound was matched to its structure with a doubt left. Some entries repeat one wording, which the source may state once for all of them.

System: glycine site coupled to the NMDA ionophore complex
Conditions: literature citations; cited from earlier work

Compound	activity at the glycine site (agonist/antagonist, in words)
O=C(O)c1cc2cc(Cl)ccc2[nH]1 [5-chloro-indole-2-carboxylate]	weak antagonists
NC1(C(=O)O)CCC1 [1-amino-cyclobutanecarboxylate]	weak antagonists
O=C(O)c1nc2cc(Cl)c(Cl)cc2nc1O [6,7-dichloro-3-hydroxy-quinoxaline-2-carboxylate]	quite strong antagonists
NC1(C(=O)O)CCCC1 [1-amino-cyclopentanecarboxylate]	weak antagonists
